Data from publication PMC10714334 (The Journal of Biological Chemistry, 2023).

Assay: general procedure: Fmoc solid-phase peptide synthesis
Conditions: whole synthesis

Row | Substance | final HPLC purity [%]
1 | EIRQTHNIAFNFFKRR | ≥99
2 | IRQTHNIFFNFFKRR | ≥99
3 | RQTHNIFFNFFKRR | ≥99
4 | EIRQTHNIFFNFFKR | ≥99
5 | EIRQTHnIFFNFFKRR | ≥98
6 | EIRQTHNIFFNFFK | ≥99
7 | EIRQTHNIFFNFfKRR | ≥99
8 | EIRQTHNIFFNFFKRR | ≥99
9 | eIRQTHNIFFNFFKRR | ≥99
10 | EIAQTHNIFFNFFKRR | ≥99
11 | EIRQTHNIFFNFF | ≥99
12 | EIRQAHNIFFNFFKRR | ≥99
13 | EIRQTHNIfFNFFKRR | ≥99
14 | EIRQTHNIFFNFFARR | ≥98
15 | EIrQTHNIFFNFFKRR | ≥99
16 | EIRQTHNIFfNFFKRR | ≥99
17 | EIRQTHNIFFNFFkRR | ≥99
18 | EIRQTHNIFFNFFKRA | ≥99
19 | EIRQTHNIFFNfFKRR | ≥99
20 | EARQTHNIFFNFFKRR | ≥99

Row | Substance | final HPLC purity [%]
21 | EIRQTHNIFFNAFKRR | ≥99
22 | EIRQTHNiFFNFFKRR | ≥96
23 | EIRQTHNIFFNFFKAR | ≥99
24 | AIRQTHAIFFNFFKRR | ≥99
25 | EIRQThNIFFNFFKRR | ≥99
26 | EIRQTHNIFFNFFKRr | ≥99
27 | EIRQTHNAFFNFFKRR | ≥98
28 | EIRATHNIFFNFFKRR | ≥99
29 | EIRQtHNIFFNFFKRR | ≥99
30 | EIRQTHNIFANFFKRR | ≥99
31 | EIRQTANIFFNFFKRR | ≥99
32 | EiRQTHNIFFNFFKRR | ≥99
33 | QTHNIFFNFFKRR | ≥95
34 | EIRQTHAIFFNFFKRR | ≥99
35 | EIRQTHNIFFNFAKRR | ≥99
36 | EIRQTHNIFFAFFKRR | ≥99
37 | EIRQTHNIFFnFFKRR | ≥98
38 | AIRQTHNIFFNFFKRR | ≥99
39 | EIRQTHNIFFNFFKrR | ≥99
40 | EIRqTHNIFFNFFKRR | ≥99

End groups of sequences in plain letters are not given here.
